Consider one substance from US10315976B2, “Organic compounds” (Givaudan SA, priority 2013, dated 2019).

A short description of the data set: Olfactory evaluation of odour characteristics by perfumers. Particulars: odour description, applicant / perfumers. The procedure: The reported NMR spectra were measured in CDCl3 at 400 MHz if not otherwise stated; chemical shifts are reported in ppm downfield from TMS; coupling constants J in Hz. The GC/MS analyses were run using a ZB-5 column, if not stated otherwise. All purified products were either crystallized and isolated as white solids or purified by distillation in vacuo and isolated as colorless oils, the purity was confirmed by GC/MS. Samples for olfactory evaluation were purified by rectification over a distillation column with Sulzer packing.

As for “(E/Z)-5,9-dimethyldeca-4,8-dienal and (E/Z)-5,9-dimethyldeca-4,9-dienal [Example 2]”, the Odour entry is “Fruity, apple, citrus, fatty, aldehydic, metallic, slightly hot iron, long lasting”. Also, the Odour result (listed as drawing 3) is “fruity, citrus, fatty, slightly hot iron and metallic”.
